According to the supplement of paper PMC6078165:
The reference is the same well before dosing, and untreated signal decays as well.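 Fibroblast labels name human fibroblasts: mostly primary ones from tissues such as uterus (C12385, HUF), lung (H6013), bone (Hs27A), adrenal (HADF) and skin (WS1), plus mammary HMF and breast cancer-associated Hs343T. The cancer cells are basal-like or mesenchymal-like triple-negative breast cancer lines. The paper calls a changed response a hit when it shifts by more than 3x the replicate standard deviation. The tissue of the other fibroblasts is not given here.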

Test system: Hs578T
Experiment: relative JC-1 red fluorescence (viability) vs pre-drug, coculture with fibroblast (fraction); higher = more viable cancer cells
Conditions: 1 µM
Experimental: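 JC-1 labelled TNBC cells cocultured 1:1 (1,500 cells each) with CellTrace Violet stained primary or stromal fibroblasts in 384-well plates in FluoroBrite medium, treated with one of 42 anticancer drugs at 0.1, 1, 10 or 100 uM. JC-1 red fluorescence (mitochondrial integrity in cancer cells only) was read by plate reader every 8 h for 72 h. Values are normalised to each well's pre-drug value. The stock of one drug was tenfold lower, so its dose labels may be too high.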

CCC1=C[C@@H]2CN(C1)Cc1c([nH]c3ccccc13)[C@@](C(=O)OC)(c1cc3c(cc1OC)N(C)[C@H]1[C@@](O)(C(=O)OC)[C@H](OC(C)=O)[C@]4(CC)C=CCN5CC[C@]31[C@@H]54)C2 [Vinorelbine]
Conditions	relative JC-1 red fluorescence
8 h	0.902
16 h	0.806
24 h	0.747
32 h	0.69
40 h	0.618

relative JC-1 red fluorescence
Conditions	8 h	16 h	24 h	32 h	40 h
coculture fibroblast: C12385	0.821	0.718	0.684	0.572	0.51
coculture fibroblast: H6013	0.912	0.881	0.842	0.804	0.763
coculture fibroblast: H6019	0.7929	0.703	0.67122	0.568	0.517
coculture fibroblast: H6076	0.857	0.883	0.824	0.754	0.661
coculture fibroblast: H6231	0.934	0.857	0.74	0.655	0.559
coculture fibroblast: HADF	0.892	0.906	0.855	0.77	0.693
coculture fibroblast: HCFa	0.8524	0.826	0.771	0.674	0.594
coculture fibroblast: HCPF	0.957	0.857	0.812	0.753	–
coculture fibroblast: HHSteC	0.9147	0.836	0.778	0.699	–
coculture fibroblast: HMF	0.938	0.869	0.805	0.737	–
coculture fibroblast: HPFa	0.946	0.89	0.801	0.734	–
coculture fibroblast: HUF	0.906	0.799	0.7905	0.6767	–
coculture fibroblast: Hs27A	0.952	0.92	0.85	0.79	–
coculture fibroblast: Hs343T	0.934	0.796	0.754	0.7025	–
coculture fibroblast: WS1	0.808	0.702	0.653	0.529	–
